Among the data in article PMC11655529 are binding values, retold here.

Chains of the proteins cited; added tags and fusions are not shown.
UniProt Q14457: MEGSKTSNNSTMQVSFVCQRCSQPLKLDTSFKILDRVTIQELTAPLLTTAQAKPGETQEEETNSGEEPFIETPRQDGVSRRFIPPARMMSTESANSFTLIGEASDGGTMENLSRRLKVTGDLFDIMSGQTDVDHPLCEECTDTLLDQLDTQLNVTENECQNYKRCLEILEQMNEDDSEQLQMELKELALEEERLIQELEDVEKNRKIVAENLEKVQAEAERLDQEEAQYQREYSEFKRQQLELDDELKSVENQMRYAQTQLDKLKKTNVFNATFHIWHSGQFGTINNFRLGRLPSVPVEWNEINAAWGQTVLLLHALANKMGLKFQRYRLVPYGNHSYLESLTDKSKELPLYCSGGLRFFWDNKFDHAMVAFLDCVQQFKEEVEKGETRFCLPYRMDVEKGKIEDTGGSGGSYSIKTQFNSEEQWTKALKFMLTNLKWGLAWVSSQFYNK
UniProt P10415: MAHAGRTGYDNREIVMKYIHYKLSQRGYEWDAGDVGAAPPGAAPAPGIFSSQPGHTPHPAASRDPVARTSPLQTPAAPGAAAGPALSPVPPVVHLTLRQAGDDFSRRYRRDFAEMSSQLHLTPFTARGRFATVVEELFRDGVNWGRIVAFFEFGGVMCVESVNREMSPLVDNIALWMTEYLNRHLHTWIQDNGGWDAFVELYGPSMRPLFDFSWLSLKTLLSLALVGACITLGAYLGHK

The target of assay [1] is BECN1 (human (endogenous in ovarian cancer cells)) (UniProt Q14457). Put plainly: co-IP; BECN1 antibody (IgG as control) on lysates of control, LOC730101-overexpressing and LOC730101-knockdown ovarian cancer cells treated with 10 µM cisplatin or 10 µM niraparib for 24 h; Western blot for BECN1, VPS34 and Bcl2. A general note: Immunoblotting shows a protein as a band on a membrane.

The target of assay [2] is p62 (human (endogenous in ovarian cancer cells)) (UniProt Q13501). The assay can be described thus: co-IP; p62 antibody (IgG as control) on lysates of control and LOC730101-knockdown ovarian cancer cells treated with 10 µM cisplatin or 10 µM niraparib for 24 h; Western blot for p62 and RNF168.

No constants are given. Whether binding was seen depends on the method and setting. Binding seen in cells or lysates may run through a third protein. Some results given as binding are weak or reduced against the parent protein; the word gives no strength.

Consider Bcl2 (from UniProt P10415 1-239), for which, in assay [1], the binding entry was “binds”.

For RNF168 (from UniProt Q8IYW5 1-571), in assay [2], the binding result is given as “binds”.
